Source: doi:10.1101/2020.08.27.269514
Like-named read-outs stand apart in the source and are kept apart here. No constants are given. Whether binding was seen depends on the method and setting. In cells and extracts the contact can be indirect. Some entries that bind do so weakly or less than the wild type.

By UniProt entry, the sequences of proteins in these tests, tags left out.
UniProt Q62315: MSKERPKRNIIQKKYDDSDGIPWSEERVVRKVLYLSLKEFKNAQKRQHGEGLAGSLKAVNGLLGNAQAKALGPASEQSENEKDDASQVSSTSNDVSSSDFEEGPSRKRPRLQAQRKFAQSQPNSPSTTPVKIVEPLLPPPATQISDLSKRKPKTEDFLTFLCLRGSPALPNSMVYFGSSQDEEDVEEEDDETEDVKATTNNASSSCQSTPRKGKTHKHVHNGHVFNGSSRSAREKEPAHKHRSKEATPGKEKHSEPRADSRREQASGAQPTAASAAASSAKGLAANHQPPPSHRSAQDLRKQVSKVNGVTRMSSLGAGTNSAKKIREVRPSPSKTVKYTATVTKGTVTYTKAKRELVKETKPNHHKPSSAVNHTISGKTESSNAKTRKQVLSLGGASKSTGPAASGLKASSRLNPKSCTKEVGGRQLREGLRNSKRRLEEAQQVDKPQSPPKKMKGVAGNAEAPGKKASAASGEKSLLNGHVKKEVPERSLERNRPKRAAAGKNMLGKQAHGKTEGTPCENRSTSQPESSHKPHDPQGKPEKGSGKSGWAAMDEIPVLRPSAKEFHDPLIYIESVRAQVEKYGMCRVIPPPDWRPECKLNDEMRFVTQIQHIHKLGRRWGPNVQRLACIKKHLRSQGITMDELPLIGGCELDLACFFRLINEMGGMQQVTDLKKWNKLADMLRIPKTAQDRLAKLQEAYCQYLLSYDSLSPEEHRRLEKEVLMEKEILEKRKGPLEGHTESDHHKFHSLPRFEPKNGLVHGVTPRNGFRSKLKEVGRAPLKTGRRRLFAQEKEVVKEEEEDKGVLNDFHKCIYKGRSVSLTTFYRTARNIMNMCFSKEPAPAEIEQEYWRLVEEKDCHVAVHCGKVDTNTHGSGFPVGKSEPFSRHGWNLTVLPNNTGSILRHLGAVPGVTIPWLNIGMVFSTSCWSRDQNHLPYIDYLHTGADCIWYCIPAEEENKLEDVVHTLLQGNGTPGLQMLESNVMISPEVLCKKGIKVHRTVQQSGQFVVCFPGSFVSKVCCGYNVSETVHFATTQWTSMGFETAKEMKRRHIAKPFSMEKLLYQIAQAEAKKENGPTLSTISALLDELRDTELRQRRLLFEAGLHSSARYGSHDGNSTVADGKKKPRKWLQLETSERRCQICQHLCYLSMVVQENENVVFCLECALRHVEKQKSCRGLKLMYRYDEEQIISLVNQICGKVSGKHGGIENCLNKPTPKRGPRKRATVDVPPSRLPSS
UniProt O70546: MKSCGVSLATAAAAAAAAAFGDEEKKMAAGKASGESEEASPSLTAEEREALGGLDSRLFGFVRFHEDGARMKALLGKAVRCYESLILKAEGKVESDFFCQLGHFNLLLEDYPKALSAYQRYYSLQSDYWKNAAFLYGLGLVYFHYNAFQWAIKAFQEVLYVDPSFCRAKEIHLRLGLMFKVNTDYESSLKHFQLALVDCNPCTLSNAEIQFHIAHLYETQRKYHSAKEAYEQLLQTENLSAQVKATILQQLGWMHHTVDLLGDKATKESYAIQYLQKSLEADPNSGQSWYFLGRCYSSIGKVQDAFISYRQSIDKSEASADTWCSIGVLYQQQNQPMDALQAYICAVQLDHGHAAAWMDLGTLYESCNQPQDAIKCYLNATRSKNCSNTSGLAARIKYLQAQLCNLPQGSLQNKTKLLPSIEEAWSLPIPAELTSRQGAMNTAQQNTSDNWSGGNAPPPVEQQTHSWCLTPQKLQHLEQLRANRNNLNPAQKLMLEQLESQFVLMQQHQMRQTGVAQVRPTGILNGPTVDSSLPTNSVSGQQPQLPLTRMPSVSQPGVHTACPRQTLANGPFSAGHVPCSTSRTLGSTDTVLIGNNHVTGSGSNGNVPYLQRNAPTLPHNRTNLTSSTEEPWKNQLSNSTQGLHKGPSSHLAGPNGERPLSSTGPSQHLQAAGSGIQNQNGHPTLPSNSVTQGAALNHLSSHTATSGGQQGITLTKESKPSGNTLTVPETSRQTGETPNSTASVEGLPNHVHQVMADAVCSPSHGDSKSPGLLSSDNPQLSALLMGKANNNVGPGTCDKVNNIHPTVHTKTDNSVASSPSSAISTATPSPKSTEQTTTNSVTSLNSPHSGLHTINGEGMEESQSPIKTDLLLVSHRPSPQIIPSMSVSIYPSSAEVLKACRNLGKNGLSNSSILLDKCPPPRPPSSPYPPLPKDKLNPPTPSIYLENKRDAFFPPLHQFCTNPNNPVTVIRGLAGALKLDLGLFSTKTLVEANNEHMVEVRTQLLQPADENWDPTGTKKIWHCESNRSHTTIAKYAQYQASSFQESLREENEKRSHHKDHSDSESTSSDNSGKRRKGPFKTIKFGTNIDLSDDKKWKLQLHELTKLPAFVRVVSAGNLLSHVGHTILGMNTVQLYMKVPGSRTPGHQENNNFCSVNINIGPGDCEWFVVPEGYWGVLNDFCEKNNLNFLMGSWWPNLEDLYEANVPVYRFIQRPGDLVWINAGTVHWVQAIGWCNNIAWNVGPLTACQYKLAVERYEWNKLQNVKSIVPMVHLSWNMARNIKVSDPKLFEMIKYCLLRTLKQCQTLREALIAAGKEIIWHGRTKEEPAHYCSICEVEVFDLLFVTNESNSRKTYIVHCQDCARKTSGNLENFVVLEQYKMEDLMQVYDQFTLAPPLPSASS
UniProt Q80U70: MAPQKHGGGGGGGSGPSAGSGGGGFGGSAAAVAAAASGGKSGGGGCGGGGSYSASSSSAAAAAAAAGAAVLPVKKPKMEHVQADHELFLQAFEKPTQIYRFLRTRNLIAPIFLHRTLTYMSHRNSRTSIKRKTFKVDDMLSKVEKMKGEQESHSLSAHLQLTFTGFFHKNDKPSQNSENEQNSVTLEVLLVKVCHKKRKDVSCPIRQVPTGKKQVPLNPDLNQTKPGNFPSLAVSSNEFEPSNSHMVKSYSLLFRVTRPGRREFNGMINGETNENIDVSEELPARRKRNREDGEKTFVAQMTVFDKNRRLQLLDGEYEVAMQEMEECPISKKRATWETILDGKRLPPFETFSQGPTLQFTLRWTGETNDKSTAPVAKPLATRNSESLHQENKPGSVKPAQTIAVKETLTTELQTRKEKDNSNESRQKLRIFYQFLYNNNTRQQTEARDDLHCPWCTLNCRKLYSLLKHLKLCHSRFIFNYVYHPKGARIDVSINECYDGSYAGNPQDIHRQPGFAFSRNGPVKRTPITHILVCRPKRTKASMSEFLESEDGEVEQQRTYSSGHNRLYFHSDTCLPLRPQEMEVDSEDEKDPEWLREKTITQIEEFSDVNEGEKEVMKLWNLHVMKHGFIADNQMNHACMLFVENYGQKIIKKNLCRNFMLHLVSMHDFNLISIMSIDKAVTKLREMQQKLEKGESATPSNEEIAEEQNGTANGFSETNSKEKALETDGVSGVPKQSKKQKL
UniProt Q9Z0Z7: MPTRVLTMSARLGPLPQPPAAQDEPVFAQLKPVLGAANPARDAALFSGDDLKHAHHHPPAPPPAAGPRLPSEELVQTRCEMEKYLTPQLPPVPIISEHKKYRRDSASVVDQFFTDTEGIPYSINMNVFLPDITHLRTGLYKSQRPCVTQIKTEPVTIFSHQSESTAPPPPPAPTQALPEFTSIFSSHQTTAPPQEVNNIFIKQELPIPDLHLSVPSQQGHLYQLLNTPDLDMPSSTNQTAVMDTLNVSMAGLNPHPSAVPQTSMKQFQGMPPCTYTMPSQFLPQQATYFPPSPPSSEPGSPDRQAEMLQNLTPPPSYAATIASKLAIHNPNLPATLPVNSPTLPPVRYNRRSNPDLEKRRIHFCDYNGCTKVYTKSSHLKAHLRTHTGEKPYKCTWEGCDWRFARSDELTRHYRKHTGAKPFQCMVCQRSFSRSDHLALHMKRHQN
UniProt P48432: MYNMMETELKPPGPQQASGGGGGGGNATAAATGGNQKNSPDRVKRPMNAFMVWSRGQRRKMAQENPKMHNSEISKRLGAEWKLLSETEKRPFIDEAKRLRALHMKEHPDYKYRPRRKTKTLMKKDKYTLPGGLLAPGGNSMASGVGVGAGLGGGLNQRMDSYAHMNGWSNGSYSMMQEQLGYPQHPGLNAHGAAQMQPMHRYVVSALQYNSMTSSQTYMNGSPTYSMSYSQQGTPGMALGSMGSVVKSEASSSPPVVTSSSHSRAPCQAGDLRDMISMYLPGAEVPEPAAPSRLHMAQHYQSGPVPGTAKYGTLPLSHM
UniProt Q9CQJ4: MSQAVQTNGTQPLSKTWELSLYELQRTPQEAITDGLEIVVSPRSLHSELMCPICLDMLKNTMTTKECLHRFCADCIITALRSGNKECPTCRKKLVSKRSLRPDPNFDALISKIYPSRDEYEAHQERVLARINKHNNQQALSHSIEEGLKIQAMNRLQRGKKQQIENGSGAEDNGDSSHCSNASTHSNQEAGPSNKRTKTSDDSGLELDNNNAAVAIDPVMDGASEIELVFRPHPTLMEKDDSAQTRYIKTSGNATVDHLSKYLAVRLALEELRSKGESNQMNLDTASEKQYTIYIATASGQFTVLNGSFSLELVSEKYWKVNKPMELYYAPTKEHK
UniProt Q80Y84: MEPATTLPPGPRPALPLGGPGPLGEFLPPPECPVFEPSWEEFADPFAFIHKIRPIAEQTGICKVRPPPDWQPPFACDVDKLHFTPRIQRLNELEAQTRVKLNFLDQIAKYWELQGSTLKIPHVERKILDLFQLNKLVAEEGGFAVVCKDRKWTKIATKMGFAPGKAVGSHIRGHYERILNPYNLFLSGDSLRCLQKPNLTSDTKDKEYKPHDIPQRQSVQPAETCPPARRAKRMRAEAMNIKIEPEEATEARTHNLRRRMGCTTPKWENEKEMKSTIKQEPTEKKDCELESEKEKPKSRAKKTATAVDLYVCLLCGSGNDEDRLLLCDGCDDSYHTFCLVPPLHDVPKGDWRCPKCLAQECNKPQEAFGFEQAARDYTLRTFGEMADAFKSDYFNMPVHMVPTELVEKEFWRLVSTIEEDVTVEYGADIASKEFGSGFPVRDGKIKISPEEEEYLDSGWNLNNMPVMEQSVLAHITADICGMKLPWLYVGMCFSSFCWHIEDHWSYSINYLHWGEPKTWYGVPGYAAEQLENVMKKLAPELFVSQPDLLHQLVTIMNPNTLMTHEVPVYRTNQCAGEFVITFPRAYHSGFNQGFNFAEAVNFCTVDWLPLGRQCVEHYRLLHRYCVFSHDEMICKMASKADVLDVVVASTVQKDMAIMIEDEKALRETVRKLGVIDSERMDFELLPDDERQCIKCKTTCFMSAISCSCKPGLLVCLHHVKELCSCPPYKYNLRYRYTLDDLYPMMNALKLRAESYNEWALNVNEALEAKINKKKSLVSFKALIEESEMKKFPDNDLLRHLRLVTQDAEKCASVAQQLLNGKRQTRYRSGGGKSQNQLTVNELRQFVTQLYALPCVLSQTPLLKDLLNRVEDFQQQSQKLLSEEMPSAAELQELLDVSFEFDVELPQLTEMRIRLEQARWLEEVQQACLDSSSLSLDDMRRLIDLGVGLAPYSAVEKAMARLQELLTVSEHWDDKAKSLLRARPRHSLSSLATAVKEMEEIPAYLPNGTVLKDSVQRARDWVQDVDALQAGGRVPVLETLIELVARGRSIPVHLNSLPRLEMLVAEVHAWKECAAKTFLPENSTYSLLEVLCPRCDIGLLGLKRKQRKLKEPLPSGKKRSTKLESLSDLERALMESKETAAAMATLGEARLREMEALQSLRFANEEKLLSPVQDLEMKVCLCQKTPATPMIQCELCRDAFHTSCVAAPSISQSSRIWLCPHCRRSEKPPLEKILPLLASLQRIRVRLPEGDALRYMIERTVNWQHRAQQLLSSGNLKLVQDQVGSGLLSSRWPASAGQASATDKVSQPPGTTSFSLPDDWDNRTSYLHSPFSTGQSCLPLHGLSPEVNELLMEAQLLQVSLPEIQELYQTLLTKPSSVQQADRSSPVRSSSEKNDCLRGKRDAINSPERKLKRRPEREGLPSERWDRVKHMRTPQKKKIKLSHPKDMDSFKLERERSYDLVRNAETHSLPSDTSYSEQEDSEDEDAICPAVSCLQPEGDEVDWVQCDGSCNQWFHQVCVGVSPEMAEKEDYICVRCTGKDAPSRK

Experiments:
Test in all cases: co-IP
JARID2-FLAG-Biotin(FB) [1] = target: JARID2-FLAG-Biotin(FB) (UniProt Q62315)
KDM6A-FLAG-Biotin(FB) [2] = target: KDM6A-FLAG-Biotin(FB) (UniProt O70546)
KDM6A-FLAG-Biotin(FB) [3] = target: KDM6A-FLAG-Biotin(FB) (UniProt O70546); remark: listed apart in the source
JARID2-FLAG-Biotin(FB) [4] = target: JARID2-FLAG-Biotin(FB) (UniProt Q62315); remark: listed apart in the source

Molecule: SUZ12 (from UniProt Q80U70 1-741)
- binding (JARID2-FLAG-Biotin(FB) [1]): binds

Molecule: KLF5 (from UniProt Q9Z0Z7 1-446)
- binding (KDM6A-FLAG-Biotin(FB) [2]): binds

Molecule: SOX2 (from UniProt P48432 1-319)
- binding (KDM6A-FLAG-Biotin(FB) [2]): binds

Molecule: RING1B (from UniProt Q9CQJ4 1-336)
- binding (JARID2-FLAG-Biotin(FB) [1]): binds

Molecule: KDM5B (from UniProt Q80Y84 1-1544)
- binding (JARID2-FLAG-Biotin(FB) [1]): binds

B1: KDM4B (protein, UniProt Q91VY5 1-1086)
chain: MGSEDHSAQNPSCKIMTFRPTMDEFRDFNRYVAYIESQGAHRAGLAKIIPPKEWKPRQTYDDIDDVVIPAPIQQVVTGQSGLFTQYNIQKKAMTVGEYRRLANSEKYCTPRHQDFDDLERKYWKNLTFVSPIYGADISGSLYDDDVAQWNIGNLRTILDMVERECGTIIEGVNTPYLYFGMWKTTFAWHTEDMDLYSINYLHFGEPKSWYAIPPEHGKRLERLAIGFFPGSSQGCDAFLRHKMTLISPIILKKYGIPFSRITQEAGEFMITFPYGYHAGFNHGFNCAESTNFATLRWIDYGKVATQCTCRKDMVKISMDVFVRILQPERYEQWKQGRDLTVLDHTRPTALSSPELSSWSASRTSIKAKLLRRQISVKESRPWRKAEEERRREPTRRPGPASHRRRSQPKKSKPEESRSPGEATAGVSTLDEARGCSRGEAMPEDEEEEELLPSQGHEAEGVEEDGRGKPRPTKARNKKKTPSPSSPPLLSAPPALFPTEEVLRPPPQPKSPGPAMGPMAAEGGPPPTPLNVVPPGAPVEEAEVRPRPIIPMLYVLPRTSSTDGDREHSAHAQLAPMELGPEEENQAQAGDSQGTTPFSKLKVEIKKSRRHPLGRPPTRSPLSVVKQEASSDEEAFLFSGEDDVTDPEALRSLLSLQWKNKAASFQAERKFNAAAALSEPYCAICTLFYPYSQSVQTERDSAVQPPSKSGQRTRPLIPEMCFTSSGENTEPLPANSYVGEDGTSPLISCAHCCLQVHASCYGVRPELAKEGWTCSRCAAHAWTAECCLCNLRGGALQRTTEHRWIHVICAIAVPEVRFLNVIERNPVDVSAIPEQRWKLKCIYCRKRMKRVSGACIQCSYEHCSTSFHVTCAHAAGVLMEPDDWPYVVSITCLKHRASGAGGQLLRTVSLGQIVITKNRNGLYYRCRVIGTTAQTFYEVNFDDGSYSDNLYPESITSRDCLRLGPPPEGELVELRWTDGNLYRARFISMATSLIYQVEFEDGSQLTVKRGDIFTLEEELPKRVRSRLSLSTGTPQEPSFSGDDVKAAKRPRVASVLATTTEDTGRSPEYLSFMESLLQAQGRPGAPF
- binding (KDM6A-FLAG-Biotin(FB) [3]): binds

B2: KDM4A (protein, UniProt Q8BW72 1-1064)
chain: MASESETLNPSARIMTFYPTMEEFRNFSRYIAYIESQGAHRAGLAKVVPPKEWKPRTSYDDIDDLVIPAPIQQLVTGQSGLFTQYNIQKKAMTVREFRKIANSDKYCTPRYSEFEELERKYWKNLTFNPPIYGADVNGTLYEQHVDEWNIGRLKTILDLVEKESGITIEGVNTPYLYFGMWKTSFAWHTEDMDLYSINYLHFGEPKSWYSVPPEHGKRLERLAKGFFPGSAQSCEAFLRHKMTLISPLMLKKYGIPFDKVTQEAGEFMITFPYGYHAGFNHGFNCAESTNFATRRWIEYGKQAVLCSCRKDMVKISMDVFVRRFQPERYKLWKAGKDSMVIDHTLPTPEAAEFLKDSGGLTPRAGSEECPEEDVEAADQGEEGDVKRSLAKHRIGTKRHRVCLEIPQEVSQSELFPKEELSSGQYEMTECPATLAPVRPTHSSVRQVEDSLPFPDYSDPTEVKFEELKNVKLEEEDEEDEPEAAALDLSVNPASVGGRLVFSGSKKKSSSSLGSTSSQDSVSSDSETAESVSCQGQEKTGVLTVHSYARGDGKAATGEPSVKKKRSAPRSISEQELAEVADEYMLSLEENKKTKGRRQPLSKLPRHHPLVLQECGSDDETSEQLTPEEEAEETEAWAKPLSQLWQNRPPNFEAEKEFNEIMAQQAPHCAVCMIFQTYHQVEFGAFSQSCGDASEPAAQTQRTKPLIPEMCFTTTGCSTDINLSTPYLEEDGTSMLVSCKKCSVRVHASCYGVPPAKASEEWMCSRCSANALEEDCCLCSLRGGALQRANDDRWVHVSCAVAILEARFVNIAERSPVDVSKIPLPRFKLKCVFCKKRRKRNAGCCVQCSHGRCPTAFHVSCAQAAGVMMQPDDWPFVVFITCFRHKIPNLERAKGALLSITAGQKVISKHKNGRFYQCEVVRLTTETFYEVNFDDGSFSDNLYPEDIVSQDCLQLGPPAEGEVVQVRWTDGQVYGAKFVASHPIQMYQVEFEDGSQLVVKRDDVYTLDEELPKRVKSRLSVASDMRFNEIFTEKEVKQEKKRQRVINSRYREDYIEPALYRAIME
- binding (JARID2-FLAG-Biotin(FB) [4]): binds
